Measured values published in PubChem BioAssay AID493014 (National Center for Advancing Translational Sciences (NCATS), 2011).
The list shows a part of the results. The main result of the screen is listed elsewhere. These columns were measured beside it and carry no call. The list favours compounds with an active or inconclusive main result. The note in brackets gives the kind of curve behind each potency; many fits are weak.

Experiment: qHTS Assay to Find Inhibitors of Chronic Active B-Cell Receptor Signaling
Conditions: ABC-DLBCL IkBa-CBG/CBR reporter, luminescence ratio (green luciferase fused to IkBa over red control in TMD8 lymphoma cells), 4 h
In short: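 TMD8 ABC-DLBCL cells carrying doxycycline-inducible green luciferase fused to IkappaBalpha plus unfused red luciferase were exposed to compounds (up to 46 uM) for 4 hrs at 37C. Activity came from the overlap-corrected green/red luminescence ratio.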

[1] = measured here: CBR red luminescence, cell number
[2] = measured here: IkBa-CBG green luminescence

Compound	AC50 [1]	AC50 [2]
N#Cc1nc(COc2ccccc2Cl)oc1NCc1cccnc1	6.31 µM [falling, single point]	
Cc1ccc(C(=O)Oc2ccc(C(=S)N3CCOCC3)cc2)cc1	17.8 µM [rising, partial curve, poor fit]	
O=C(CSc1nnc(-c2ccncc2)o1)Nc1cc(F)ccc1F	9.2 µM [falling, partial curve, poor fit]	
COC(=O)c1ccc2nc(NC(=O)CCS(=O)(=O)c3ccccc3)sc2c1	1.58 µM [falling, full curve, poor fit]	
COCC(=O)N(Cc1ccccc1)c1ccccn1	0.146 µM [rising, full curve, poor fit]	
O=C(N/N=C/C(Br)=C/c1ccccc1)c1n[nH]c2c1CCC2	1.16 µM [rising, full curve, poor fit]	1.03 µM [falling, full curve]
COc1ccc(/C=N/N=C2\SC(CC(=O)O)C(=O)N2c2ccccc2)c(OC)c1 (stereo not drawn)	14.6 µM [falling, partial curve, poor fit]	
C/C(=N\NC(=O)c1ccccc1O)C1C(=O)c2ccccc2C1=O	1.84 µM [falling, full curve, poor fit]	
COc1cccc(-c2noc(CCCC(=O)Nc3ccc(C(N)=O)cc3)n2)c1	5.62 µM [rising, partial curve]	1.26 µM [rising, full curve, poor fit]
COc1ccc(Cl)cc1NC(=O)CSc1nc(C)cc(C)n1	11.2 µM [rising, partial curve, poor fit]	
CC(=O)Nc1ccc(S(=O)(=O)Nc2nc3ccccc3s2)cc1	32.6 µM [rising, single point]	
COc1cccc(NC(=O)c2nc(S(C)(=O)=O)ncc2Cl)c1	7.94 µM [falling, partial curve, poor fit]	
COc1ccc2nc(NC(=O)C(NS(=O)(=O)c3cccs3)C(C)C)sc2c1 (stereo not drawn)	5.8 µM [falling, single point]	
COc1ccc(N(CC(=O)NCCSc2ccccn2)S(=O)(=O)c2ccccc2)cc1Cl	35.5 µM [falling, single point]	
O=C(Nc1ccccc1Cl)C1CCN(Cc2cnn(-c3ccccc3)c2-n2cccc2)CC1	20.6 µM [rising, partial curve, poor fit]	
COc1cccc(-c2nnc(NC(=O)c3ccc(Cl)s3)o2)c1	2.59 µM [falling, full curve]	
O=C(/C=C\c1ccccc1OC(=O)c1ccccc1F)c1cc2ccccc2o1		20.6 µM [falling, single point]
COc1ccccc1NC(CC(=O)c1ccccc1)C(=O)OCC(=O)c1ccc(F)cc1 (stereo not drawn)	14.6 µM [falling, partial curve, poor fit]	
COc1ccc(OC)c(-n2c(SCC(=O)NCc3ccco3)nnc2-c2c[nH]c3ccccc23)c1	14.1 µM [falling, single point]	
CN(C)CCCN(C(=O)c1ccco1)c1nc2ccc(Br)cc2s1	22.4 µM [falling, single point]	

2 entries drawn at random from those above:
Compound	AC50 [1]	AC50 [2]
O=C(N/N=C/C(Br)=C/c1ccccc1)c1n[nH]c2c1CCC2	1.16 µM [rising, full curve, poor fit]	1.03 µM [falling, full curve]
COC(=O)c1ccc2nc(NC(=O)CCS(=O)(=O)c3ccccc3)sc2c1	1.58 µM [falling, full curve, poor fit]	

Next records:

Compound	AC50 [1]	AC50 [2]
N#Cc1cc2c(nc1SCC(O)CS(=O)(=O)Cc1ccccc1)CCCC2 (stereo not drawn)	29.1 µM [falling, single point]	
COc1ccc(NC(=O)Oc2cc(C)ccc2C(C)C)cc1	14.1 µM [rising, single point]	
CC(=O)c1ccc(NC(=O)CSC(=S)N2CCCC2)cc1	17.8 µM [falling, partial curve]	
CC(C)(C)c1ccc(C(=O)Nc2cccc3ncccc23)cc1	2.51 µM [falling, full curve, poor fit]	
Cn1cccc1/C=N/NC(=O)c1sc2ccccc2c1Cl	1 µM [falling, full curve, poor fit]	
COc1ccccc1-n1c(SCC(=O)O)nc2c(sc(=S)n2-c2ccc(C)c(C)c2)c1=O	15.8 µM [falling, single point]	
Cc1ccc(CCNC(=O)c2ccc(CNS(=O)(=O)c3ccc(C)cc3)cc2)cc1	6.31 µM [rising, partial curve]	
COC(=O)[C@@H]1C[C@H]2CC[C@H](O)C[C@H]2N1Cc1ccccc1OC(=O)c1cccs1	31.6 µM [rising, single point]	
Cc1cc(C)nc(/N=C2\NC(=O)CC(C(=O)O)N2c2ccc(Cl)cc2)n1 (stereo not drawn)	29.1 µM [falling, single point]	32.6 µM [rising, partial curve, poor fit]
O=C(NCc1ccccn1)Nc1ccc2c(c1)OCO2	16.4 µM [falling, partial curve, poor fit]	
Fc1ccccc1CNC(=S)Nc1cccc(C(F)(F)F)c1	25.9 µM [falling, single point]	
Cc1ccccc1C(=O)Nc1cccc(C(=O)N/N=C/c2ccc3c(c2)OCO3)c1	1.78 µM [falling, partial curve]	
O=C(CCN1CCCCC1c1cccnc1)NCc1ccccc1 (stereo not drawn)	29.1 µM [rising, single point]	
O=C(O)CCC(=O)N1N=C(c2ccccc2)CC1c1ccc2nccnc2c1 (stereo not drawn)	20.6 µM [rising, single point]	
c1ccc(-c2ccc(-c3cn4c(n3)CCC4)cc2)cc1	8.2 µM [falling, partial curve, poor fit]	
OCCN(CCO)c1ccc(C(c2ccc(Cl)cc2)c2ccc(N(CCO)CCO)cc2Cl)c(Cl)c1	29.1 µM [falling, single point]	20.6 µM [rising, partial curve, poor fit]
Cn1nc(C(=O)Nc2cccc(C(F)(F)F)c2)ccc1=O	1.03 µM [rising, full curve, poor fit]	
O=C(Cn1c(=O)cnc2ccccc21)Nc1cccc(S(=O)(=O)N2CCCCC2)c1	20.6 µM [falling, partial curve]	
COc1cccc(-c2cc(C(=O)Nc3ccc4c(c3)OCO4)no2)c1	1.26 µM [falling, partial curve, poor fit]	
